Taken from: PubChem BioAssay AID1508597 (Cure First, 2020)

Test: 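Survival screen with siRNA in ovarian cancer cells derived from patients, with or without rucaparib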 (primary screen)
Cell system: human ovarian carcinoma lines grown from tumours: OCI-P5x (papillary serous) and OCI-C5x (clear cell)
Reagent: siRNA pool against human genes, 1.25 pmol siRNA per well
Duration: 72 h or 96 h, depending on the cell culture
Treatment: rucaparib 20 µM (about IC30) or vehicle, present until read-out
Rucaparib or vehicle: Vehicle
Cell line: OCI-C5x (clear cell)
Measured: 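ATP luminescence measured at 72 or 96 h according to the culture, then normalised and expressed as percent viability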
Reading the numbers: viability, normalised: higher = more viable cells remaining
Active means: 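a well counts as a hit if its normalised viability is under 80 percent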
Calls: active = viability under 80%; inactive = viability 80% or more
This is a random part of the about 2,100 reagents, in one setting of the screen. 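Calls flag viability under 80% in either arm, not effects specific to rucaparib; the reference for percent is not stated.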 Not stated in the record: the 100% reference.

FER, technical replicate 1
- viability, normalised (%): 45.5
- call: active

FER, technical replicate 2
- viability, normalised (%): 41.5
- call: active

FER, technical replicate 3
- viability, normalised (%): 39
- call: active

KAT6B, technical replicate 1
- viability, normalised (%): 31.9
- call: active

KAT6B, technical replicate 2
- viability, normalised (%): 29.6
- call: active

KAT6B, technical replicate 3
- viability, normalised (%): 45.5
- call: active

TLR8, technical replicate 1
- viability, normalised (%): 54
- call: active

TLR8, technical replicate 2
- viability, normalised (%): 53.4
- call: active

TLR8, technical replicate 3
- viability, normalised (%): 47.8
- call: active

ELANE, technical replicate 1
- viability, normalised (%): 41.6
- call: active

ELANE, technical replicate 2
- viability, normalised (%): 43.5
- call: active

ELANE, technical replicate 3
- viability, normalised (%): 55.6
- call: active
